This note sets out measurements from PubChem BioAssay AID1347423 (Functional Genomics Laboratory (NCATS/FGL), 2020).

Among all 52,000 sequences or so, about 210 (0.4%) were called active.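 Rule for the calls: active = gene whose silencing raises cell survival under the drug, median off-target-corrected z-score across its silencing RNAs 2 or more; inactive = the rest.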 Some of the results follow.

The nature of this assay: Resistance to Poly (ADP-Ribose) Polymerase inhibitor: Gene Identification via Genome-wide siRNA Screen. The following applies: mouse BRCA2 R2336H ES cells, olaparib, CellTiter-Glo viability; stronger effect = higher value. In outline: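 Genome-wide siRNA screen (3 siRNAs/gene, 20 nM) in mouse ES cells carrying hypomorphic BRCA2 R2336H; olaparib 500 nM added 48 h post-transfection, CellTiter-Glo viability 72 h later. Normalized to plate-median negative control; MAD z-scores, gene median, seed-adjusted.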
(In ATP-based viability assays light output follows the ATP content of the culture.)
For the sequence GGCUCCUGGAAUUCUUACGTT against Snx11, the z-score was inactive: -0.695.
GGGCAGUCCUCGUUUCUUATT against Rad52b: the z-score was inactive: -0.932.
For the sequence CGCAGACAACAGAUAAGAATT against Gp38, the z-score is inactive: 1.05.
GCCUCUGGUGGAAGUAUACTT against Sec14l3: the z-score was inactive: -1.83.
Then “UCAUUGGUCCAGCCUAUAGTT against A330070K13Rik”, with inactive: 0.0754.
For CCCUGUUGAUGAACAAAUCTT against Ddt, the z-score is inactive: 0.886.
GCAAACCUCAAUCUUGAAATT against Knsl7: the z-score is inactive: 1.19.
GGCUUCCAAAACAAAUCAATT against Rgn: the z-score is inactive: -0.721.
For the sequence GGCAGGAAAACAAAAGGGATT against Cobll1, the z-score was inactive: 0.402.
Then “GGUGCAGACCAACAAGACATT against C630010N09”, with inactive: -1.96; and CCAUCUAUUACGGAACGGGTT against Olfr324, with inactive: 1.62; and GGGAAAGUUUUGUUCUGUATT against Vil2, with inactive: -0.662.
With GCAUUCAUGAAAGUGUUAGTT against Olfr164, the z-score is inactive: 1.23.
Regarding GGUAGACUAUCUGGAGACATT against Olfml3, the z-score was inactive: 0.367.
GGUGAAGUUACAGUCAAAUTT against Nolc1: the z-score was inactive: 1.3.
To GGUUACCUGUAGAUGAUUCTT against Slc4a1ap belongs inactive: 1.28; to GUAGGAUAUACCAUCUACATT against Olfr700, inactive: 0.929.
GCAUUUUAGAAGGUUAUCGTT against Dmrt2: the z-score is inactive: 1.04.
Take GGUACAGAACAUGUUCUAATT against Klf4: the z-score is inactive: -0.884.
Then CGAGAUUCUGCCUUUUCAGTT against Tcfcp2, with inactive: 0.487.
For CCUCGGUAUUAACGUGGAATT against Dmrta2, the z-score was inactive: 1.71.
To “GCUCGACAGCUACAGAGUUTT against D4Ertd478e” belongs inactive: -1.29; to CCGGCUUUGAAGUCAUUACTT against Slc4a3, inactive: -1.18; to GGACUGUGCAUUUUCAGGUTT against Sumo1, inactive: -0.183.
For the sequence GGAAGCCCUUAUGGACGAATT against Ang2, the z-score is inactive: 0.0956.
Regarding GGAGAUACAGGAUAUUAUUTT against Nme5, the z-score was inactive: 0.353.
Consider GCUAAAUUUCCCAUAGGAATT against Pmch, for which the z-score is inactive: 0.289.
Consider “GGAGCUAUUUUAGAUUAUGTT against 1100001D10Rik”, for which the z-score is inactive: -0.514.
Then GGACCAAGCCACCAAAACUTT against V1rg7, with inactive: -0.124; and GGAUCUUUAAGUUUUCCCGTT against Kcnd2, with inactive: 1.17; and GCCGACAGUUAAGUUUCUCTT against Supt3h, with inactive: 1.93.
Regarding UCUGGGUGUAAUGAAGGAGTT against BC015286, the z-score was inactive: -1.47.
As to CCUACCGCUAUGUAGUCAGTT against Dnase1, the z-score is inactive: 1.32.
Consider GGAACUGGAUGAAAACGGATT against S100a1, for which the z-score was inactive: 0.674.
Take GGCUAUUGUGGAGAAGAUCTT against Gif: the z-score was inactive: -1.75.
As to GCAGCACCAUCACUAGUGUTT against Ndufs6, the z-score is inactive: 0.0314.
For CCACACUUAGUCAUUUUCUTT against BC034902, the z-score was inactive: 0.335.
Then GGGCAUUGGAUGUGCUGAATT against Clic3, with inactive: -0.17.
For “GGUGCCUACCAUGAAGAACTT against 1700010D01Rik”, the z-score was inactive: 0.964.
In the case of GGAAAUCCAACUUCUUUCATT against Ebf2, the z-score is inactive: 0.757.
As to GCUAGGAAGAGAGUGAUCUTT against Alg1, the z-score was inactive: -0.838.
As for GCCAUUGGAGUAUAUCUUGTT against Olfr873, the z-score was inactive: 0.963.
To “GGAAACUUUUGAUUGUAACTT against 2810021J22Rik” belongs inactive: 0.643; to GCACUUUAAGAGACAAUGUTT against Gpr63, inactive: 0.893; to GCUACUAUCACAUAUGCACTT against Olfr1122, inactive: 0.514.
As for GGUGGUACCAAGUACAACUTT against Deaf1, the z-score is inactive: 1.94.
In the case of “GGCGUGAUAGCUGGACUUATT against 1110012L19Rik”, the z-score is inactive: -0.946.
As to GGAAAGUCGAUAAUGACAATT against Wdr12, the z-score was inactive: -2.19.
For GGUUAUCAAAGCUAAGAAUTT against AI447904, the z-score is inactive: 0.0486.
Then GGCAGACAAUCAAUGAAAUTT against Padi4, with inactive: 0.944; and GCAAAAGUAGAAGAACAACTT against Ccnt1, with inactive: -0.833.
Then GGUGAAGAGCCACAAGUUCTT against Prkcc, with inactive: -0.101.
Consider GGAGCUCUGUGAGAACGAUTT against Suv420h1, for which the z-score is inactive: -1.46.
In the case of GCGGCAUAAGUCCAAGCACTT against Crk7, the z-score was inactive: -1.76.
Then GCCAGUAAGGAAUUCAACUTT against C3, with inactive: 0.87; and GGCAAAUGUGGCCGUGUUUTT against Ccne1, with inactive: 1.67.
With GGGUUAUCCGUAUGUUUUCTT against Olfr557, the z-score is inactive: -0.646.
Regarding GGGCUACUCUCUCAGGAUCTT against Dedd2, the z-score was inactive: 0.93.
Take GGCCAGUGGGAAGUGAAGATT against Sec13l1: the z-score is inactive: -1.15.
GGUGGAGAAAAAUGCAACATT against Clnk: the z-score is inactive: 0.0368.
Turning to GGUUUGAAAAGCGAAUUUATT against Vps4a, the z-score was inactive: 3.37.
For the sequence GGCGCAGAGCAAAGGAUAUTT against Pcdha1, the z-score was inactive: -0.301.
With GGCAUUAGAGCAGAGUCGUTT against Trmt1, the z-score was inactive: 0.629.
As to GGGAGUUUCACUGAAGCCATT against Prkch, the z-score was inactive: 0.395.
For GGUGUAUUUCACGGGACCATT against Rela, the z-score was inactive: 1.76.
Take “GGGAAAAAGAACAAAAGCATT against 2310044P18Rik”: the z-score is inactive: -0.501.
With GGAGGUGAUUUCGGGUAACTT against Ddr1, the z-score was inactive: -0.515.
To GCCCAAUAUACUCUAAGGGTT against Cdh20 belongs inactive: 0.338; to GGCAAUUCCCAGCACGAUGTT against Usp43, inactive: 0.335.
For GGAUAUGGAGACACAGAUGTT against Mic2l1, the z-score was inactive: 0.184.
With GCACAGUAGUUCUUGCAUCTT against Olfr891, the z-score is inactive: 0.685.
In the case of GCAUAUCUAUAACAGAGCCTT against Ear11, the z-score is inactive: 0.31.
For CCAAAUAACUUUGUUGGCATT against Srrp, the z-score is inactive: -0.579.
GGCAUUGUGAAAUCCUAUUTT against Lhx5: the z-score is inactive: 0.897.
Consider GCUUCAAAAGGACAGGUCATT against Galnt13, for which the z-score was inactive: -0.35.
GCUAAUGACCUGUGCCAAGTT against Sftpb: the z-score is inactive: 0.641.
With GGUUGUAAAAGACCAUUAATT against Siat4c, the z-score was inactive: 1.04.
To CCUGGAGAGCAUUGACAUCTT against Irx1 belongs inactive: 0.0215.
Turning to CCUUAUGGUGCGCAUUAAATT against Kcnq1, the z-score is inactive: 0.343.
GCUUAAUAAUUUCAUCCAGTT against Brms1l: the z-score was inactive: -0.737.
To GGGUUCGAGGGUUCUUGUGTT against Gna12 belongs inactive: -2.64; to “GCGCACAAAAAACAUGAUATT against 4921526K24Rik”, inactive: 0.0286; to “GGAGGGUCGGCUUAUAAUUTT against 4930523C11Rik”, inactive: 0.97.
GCAGUUACACUGAAUACAUTT against Kctd8: the z-score is inactive: 0.565.
In the case of GGGCCGAUCAUGGUUAACATT against Cpt1a, the z-score is inactive: -0.373.
Turning to GGGUUAUCGAUAGAAAAUATT against Rag2, the z-score is inactive: -0.745.
With GGAGAGUAGAUUCUCCAUUTT against AI839920, the z-score was inactive: -0.128.
Then GCAUGCCCGUAAUCAAGUGTT against Racgap1, with inactive: 1.06; and CGAGUAUGACACCUUCGACTT against Gpr97, with inactive: 0.544; and CCGGAAAUUUCUGAUGGAGTT against Eif4ebp1, with inactive: 0.0692.
Then GCACCUUGUCAACCAUUACTT against Kctd7, with inactive: 0.0858; and “GGACGACGACUUUUUAAAATT against 0710005I19Rik”, with inactive: 0.273.
In the case of CGCCAUAGUCAUCUUCUAATT against AI987944, the z-score is inactive: -0.641.
For the sequence “GGAAUGAGGUUUGUAGACUTT against 6330406P08Rik”, the z-score is inactive: 1.71.
In the case of GGAGUUGGUUUGUAUCAAATT against Fgf15, the z-score was inactive: -0.233.
Turning to GCAUGCGCGCUACACUCUATT against Adamts5, the z-score was active: 0.75.
As to GGCCUUUAACAAGUUUCUATT against Csna, the z-score was inactive: 1.44.
Then GGAACUCAAAGUCAAGGUUTT against Cryab, with inactive: -0.256; and CCCAGCACUUUUUCGCUCUTT against Olfr458, with inactive: 0.91; and CGGGUUCAACUAAAUUCAGTT against Dnajc5, with inactive: 0.157.
For the sequence “GCCGAUAGCAUAGACAGUGTT against 2310037I24Rik”, the z-score was inactive: -1.24.
Then GCAUGUCGCCUUGAAAUUATT against Cpne4, with inactive: -0.538; and “GCUACAUGUCAAAGAACCATT against 2210023C10Rik”, with inactive: 0.194.
GCCUCCACAGACAAAUACGTT against Ap1gbp1: the z-score was inactive: 0.145.
In the case of “GGUGUGUUUUUGCUUCUCUTT against 2310004K06Rik”, the z-score is inactive: -0.606.
